No constants are given. Whether binding was seen depends on the method and setting. Binding seen in cells or lysates may run through a third protein. Some binding calls cover weakened binding; strength is not graded here.
Molecular target: T1, endogenous SK2 of murine brain (mouse (endogenous in C57/Bl6 mouse brain)) (UniProt Q9JIA7)
T1 sequence: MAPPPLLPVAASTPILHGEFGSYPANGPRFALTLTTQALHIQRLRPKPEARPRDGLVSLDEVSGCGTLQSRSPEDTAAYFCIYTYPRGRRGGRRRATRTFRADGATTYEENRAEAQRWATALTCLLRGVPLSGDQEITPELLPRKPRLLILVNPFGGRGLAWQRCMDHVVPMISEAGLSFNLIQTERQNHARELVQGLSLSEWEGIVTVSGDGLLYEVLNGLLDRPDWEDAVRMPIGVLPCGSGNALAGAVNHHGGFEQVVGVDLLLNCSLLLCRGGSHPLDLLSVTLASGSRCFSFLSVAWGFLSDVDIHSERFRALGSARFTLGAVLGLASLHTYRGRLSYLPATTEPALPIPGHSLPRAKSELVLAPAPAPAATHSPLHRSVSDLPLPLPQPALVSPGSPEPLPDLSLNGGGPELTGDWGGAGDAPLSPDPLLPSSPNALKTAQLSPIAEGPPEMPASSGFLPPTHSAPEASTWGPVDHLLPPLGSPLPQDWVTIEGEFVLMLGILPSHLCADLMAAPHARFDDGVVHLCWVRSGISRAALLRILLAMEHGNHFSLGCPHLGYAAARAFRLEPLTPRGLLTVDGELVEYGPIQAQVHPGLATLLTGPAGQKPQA
Assay: co-IP; endogenous SK2 immunoprecipitated from C57/Bl6 mouse whole brain lysate with anti-SK2 antibodies (ECM Biosciences); blots with anti-IC, anti-LIC1 and anti-dynactin p150

Sequences of proteins named here, by UniProt entry; tags and fusion partners are left off.
UniProt Q8R1Q8: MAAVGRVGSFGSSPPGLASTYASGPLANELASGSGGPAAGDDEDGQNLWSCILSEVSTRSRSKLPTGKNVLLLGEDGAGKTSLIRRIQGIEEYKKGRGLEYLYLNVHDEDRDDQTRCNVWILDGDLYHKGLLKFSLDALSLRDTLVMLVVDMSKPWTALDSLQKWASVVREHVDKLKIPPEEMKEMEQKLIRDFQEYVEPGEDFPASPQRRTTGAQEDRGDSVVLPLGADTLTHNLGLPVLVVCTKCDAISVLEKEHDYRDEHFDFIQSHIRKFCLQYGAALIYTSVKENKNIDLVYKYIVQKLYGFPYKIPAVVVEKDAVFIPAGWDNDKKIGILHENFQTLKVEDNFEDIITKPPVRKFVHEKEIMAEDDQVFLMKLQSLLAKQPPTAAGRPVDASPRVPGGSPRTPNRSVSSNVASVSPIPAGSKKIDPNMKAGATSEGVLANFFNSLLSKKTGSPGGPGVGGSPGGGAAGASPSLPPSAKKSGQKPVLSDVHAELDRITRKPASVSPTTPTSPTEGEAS
UniProt O08788: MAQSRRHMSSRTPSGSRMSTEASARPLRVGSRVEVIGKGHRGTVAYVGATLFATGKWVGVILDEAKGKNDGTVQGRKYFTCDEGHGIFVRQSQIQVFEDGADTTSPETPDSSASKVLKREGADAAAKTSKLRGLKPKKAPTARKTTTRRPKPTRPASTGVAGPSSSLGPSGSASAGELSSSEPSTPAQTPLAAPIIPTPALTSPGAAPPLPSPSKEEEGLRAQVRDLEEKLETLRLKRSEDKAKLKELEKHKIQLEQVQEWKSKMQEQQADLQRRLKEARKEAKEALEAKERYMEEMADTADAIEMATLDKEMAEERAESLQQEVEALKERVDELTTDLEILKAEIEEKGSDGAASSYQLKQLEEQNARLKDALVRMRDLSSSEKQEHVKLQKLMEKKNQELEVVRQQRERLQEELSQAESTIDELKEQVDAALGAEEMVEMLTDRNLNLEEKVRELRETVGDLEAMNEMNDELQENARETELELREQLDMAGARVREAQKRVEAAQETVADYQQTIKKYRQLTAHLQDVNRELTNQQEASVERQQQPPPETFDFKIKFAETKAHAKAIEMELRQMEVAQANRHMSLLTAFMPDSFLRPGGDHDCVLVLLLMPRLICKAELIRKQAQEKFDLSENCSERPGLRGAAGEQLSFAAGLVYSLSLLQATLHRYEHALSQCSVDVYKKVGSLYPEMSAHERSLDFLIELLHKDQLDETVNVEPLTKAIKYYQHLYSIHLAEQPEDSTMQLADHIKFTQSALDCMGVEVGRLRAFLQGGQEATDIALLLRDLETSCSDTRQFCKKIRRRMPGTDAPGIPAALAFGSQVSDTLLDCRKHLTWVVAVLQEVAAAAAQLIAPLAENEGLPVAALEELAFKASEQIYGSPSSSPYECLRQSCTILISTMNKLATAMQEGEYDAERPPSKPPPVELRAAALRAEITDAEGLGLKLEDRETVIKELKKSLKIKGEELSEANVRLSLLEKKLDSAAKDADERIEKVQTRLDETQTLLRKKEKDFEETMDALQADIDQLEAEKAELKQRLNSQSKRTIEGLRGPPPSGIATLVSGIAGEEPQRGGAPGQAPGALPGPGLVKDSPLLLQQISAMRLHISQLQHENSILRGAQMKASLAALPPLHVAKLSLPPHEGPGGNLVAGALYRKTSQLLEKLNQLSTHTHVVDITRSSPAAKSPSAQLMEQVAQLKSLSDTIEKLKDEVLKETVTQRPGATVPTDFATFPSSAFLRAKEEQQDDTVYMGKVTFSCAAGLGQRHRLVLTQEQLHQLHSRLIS

| binding | Substance |
| --- | --- |
| binds | dynein light intermediate chain 1 (LIC1) of murine brain (from UniProt Q8R1Q8 1-523) |
| binds | p150 subunit of the dynactin complex, murine brain (from UniProt O08788 1-1281) |

— paper PMC6363647
